# Experimental data: PubChem BioAssay AID1259308 (NCATS, 2017)
# Assay: 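Knock-downs that increase output of a recombinant reporter protein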 (primary screen)
# Cell system: human HEK293 embryonic kidney cells stably expressing firefly luciferase (HEK-CMV-Luc2-Hygro)
# Knock-down reagent: single siRNA against human genes, 0.8 pmol siRNA per well
# Duration: 72 h
# Measured: 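Luciferase light (ONE-Glo) measured on one replicate plate set and viability (CellTiter-Glo) on the other, scaled to a negative control siRNA, with robust z-scores and luciferase per cell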
# Scale: total luciferase, z-score and total luciferase, % of control: higher = more reporter protein produced; luciferase per cell, z-score: higher = more reporter output per viable cell
# Rule for the call: 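Active when the median/MAD z-score for overall luciferase is greater than 3; a gene was taken forward for validation with new siRNAs if at least two of its three siRNAs passed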
# Meaning of the calls: active = raised luciferase; inactive = no rise
# Shown is one part, drawn at random, of about 59,000 reagents tested. About 1,510 of all reagents (2.6%) were called active. 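Calls use total luciferase alone and ignore viability, so some active siRNAs may act by altering cell number.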 Unmarked entries are inactive. Reagents against one gene are numbered here. Further read-outs or replicates are left out here.
gene knocked down,reagent,"total luciferase, z-score","total luciferase, % of control","luciferase per cell, z-score"
COPE (coat protein complex I subunit epsilon),1,0.524,92.3,0.34
COPE (coat protein complex I subunit epsilon),2,0.448,90.8,-0.357
COPE (coat protein complex I subunit epsilon),3,1.5,112,1.31
CBFA2T3 (CBFA2/RUNX1 partner transcriptional co-repressor 3),1,-0.0609,80.7,0.39
CBFA2T3 (CBFA2/RUNX1 partner transcriptional co-repressor 3),2,-1.72,47.6,-1.31
CBFA2T3 (CBFA2/RUNX1 partner transcriptional co-repressor 3),3,4.35 (active),168,3.11
CCDC66 (coiled-coil domain containing 66),1,1.14,105,1.53
CCDC66 (coiled-coil domain containing 66),2,-0.724,67.5,-0.841
CCDC66 (coiled-coil domain containing 66),3,0.152,84.9,-0.512
TRIL (TLR4 interactor with leucine rich repeats),1,-0.652,68.9,-0.744
TRIL (TLR4 interactor with leucine rich repeats),2,2.86,139,2.43
TRIL (TLR4 interactor with leucine rich repeats),3,-0.432,73.3,-1.22
MYCBP (MYC binding protein),1,-0.351,74.9,-0.64
MYCBP (MYC binding protein),2,0.562,93.1,0.572
MYCBP (MYC binding protein),3,1.35,109,1.55
IGF2BP1 (insulin like growth factor 2 mRNA binding protein 1),1,-0.381,74.3,-0.524
IGF2BP1 (insulin like growth factor 2 mRNA binding protein 1),2,-1.25,57,-1.24
IGF2BP1 (insulin like growth factor 2 mRNA binding protein 1),3,-0.947,63.1,0.0563
ALDH3A2 (aldehyde dehydrogenase 3 family member A2),1,3.44 (active),150,2.46
ALDH3A2 (aldehyde dehydrogenase 3 family member A2),2,0.383,89.5,-0.0494
ALDH3A2 (aldehyde dehydrogenase 3 family member A2),3,4.12 (active),164,1.75

Continued (7 carried over from the part before).
gene knocked down,reagent,"total luciferase, z-score","total luciferase, % of control","luciferase per cell, z-score"
MYCBP (MYC binding protein),3,1.35,109,1.55
IGF2BP1 (insulin like growth factor 2 mRNA binding protein 1),1,-0.381,74.3,-0.524
IGF2BP1 (insulin like growth factor 2 mRNA binding protein 1),2,-1.25,57,-1.24
IGF2BP1 (insulin like growth factor 2 mRNA binding protein 1),3,-0.947,63.1,0.0563
ALDH3A2 (aldehyde dehydrogenase 3 family member A2),1,3.44 (active),150,2.46
ALDH3A2 (aldehyde dehydrogenase 3 family member A2),2,0.383,89.5,-0.0494
ALDH3A2 (aldehyde dehydrogenase 3 family member A2),3,4.12 (active),164,1.75
ZNF845 (zinc finger protein 845),1,0.896,99.7,0.801
ZNF845 (zinc finger protein 845),2,0.337,88.6,-0.16
ZNF845 (zinc finger protein 845),3,-0.529,71.4,-0.0812
SLC24A2,1,0.141,84.7,0.622
SLC24A2,2,-1.11,59.8,-0.988
SLC24A2,3,1.37,109,0.989
EPHA10 (EPH receptor A10),1,-0.266,76.6,-0.631
EPHA10 (EPH receptor A10),2,-0.992,62.1,-1.13
EPHA10 (EPH receptor A10),3,-0.0246,81.4,0.159
CELF4 (CUGBP Elav-like family member 4),1,-0.271,76.5,-0.32
CELF4 (CUGBP Elav-like family member 4),2,-0.161,78.7,-0.1
CELF4 (CUGBP Elav-like family member 4),3,0.328,88.4,0.778
NOSTRIN (nitric oxide synthase trafficking),1,-0.287,76.2,-0.192
NOSTRIN (nitric oxide synthase trafficking),2,0.194,85.7,-0.12
NOSTRIN (nitric oxide synthase trafficking),3,-0.396,74,-0.854
AMH (anti-Mullerian hormone),1,0.0745,83.4,-0.105
AMH (anti-Mullerian hormone),2,-0.413,73.7,-0.426
AMH (anti-Mullerian hormone),3,1.08,103,0.632
MC3R (melanocortin 3 receptor),1,-0.993,62.1,0.786
MC3R (melanocortin 3 receptor),2,1.32,108,1.02
MC3R (melanocortin 3 receptor),3,2.95,141,1.63
EPN2 (epsin 2),1,-1.61,49.8,-0.62
EPN2 (epsin 2),2,-0.526,71.4,-0.259
EPN2 (epsin 2),3,0.206,86,-0.167
RBFOX2 (RNA binding fox-1 homolog 2),1,-2.36,35,-3.03
RBFOX2 (RNA binding fox-1 homolog 2),2,-1.44,53.3,-2.37
RBFOX2 (RNA binding fox-1 homolog 2),3,0.917,100,-0.385
MMP24 (matrix metallopeptidase 24),1,0.68,95.4,1.23
MMP24 (matrix metallopeptidase 24),2,-0.44,73.1,0.139
MMP24 (matrix metallopeptidase 24),3,5.03 (active),182,3.54
B3GNT3,1,0.451,90.9,0.194
B3GNT3,2,-1.03,61.3,1.02
B3GNT3,3,0.152,84.9,0.465
OR11H1 (olfactory receptor family 11 subfamily H member 1),1,0.457,91,0.604
OR11H1 (olfactory receptor family 11 subfamily H member 1),2,0.726,96.3,0.735
OR11H1 (olfactory receptor family 11 subfamily H member 1),3,-0.126,79.4,-0.401
